Measurements published in PubChem BioAssay (EPA / NIEHS).
The inconclusive results got no clear call from the source; some entries with a clear call stand among them for comparison. For some of these results: Potencies beside an inconclusive call are fits to weak or partial responses and may not hold up. Active and inactive are the calls of the source. The calls were made as follows, unless noted: active = hit-call score of the fitted dose curve at least 0.9, where 1 is the maximum; inconclusive = response in the unintended direction; inactive = score below 0.9.

By UniProt entry, the sequences of proteins in these tests, tags left out. Where a name states a change or a piece, a line headed by the entry shows the natural chain unless it says otherwise.
UniProt P33261, whole entry, looked up: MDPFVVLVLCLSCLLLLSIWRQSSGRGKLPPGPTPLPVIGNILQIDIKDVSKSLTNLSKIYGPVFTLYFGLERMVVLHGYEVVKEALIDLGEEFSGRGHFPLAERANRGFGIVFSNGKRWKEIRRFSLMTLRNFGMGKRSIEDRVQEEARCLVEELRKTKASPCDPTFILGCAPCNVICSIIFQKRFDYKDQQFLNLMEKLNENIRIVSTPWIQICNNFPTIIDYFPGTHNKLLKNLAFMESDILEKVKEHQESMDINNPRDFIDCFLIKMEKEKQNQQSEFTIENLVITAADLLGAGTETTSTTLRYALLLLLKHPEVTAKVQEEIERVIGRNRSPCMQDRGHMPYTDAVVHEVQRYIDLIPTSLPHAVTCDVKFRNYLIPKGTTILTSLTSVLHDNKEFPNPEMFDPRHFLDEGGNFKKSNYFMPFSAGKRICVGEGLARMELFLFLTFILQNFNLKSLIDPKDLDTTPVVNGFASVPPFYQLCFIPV
UniProt P04406: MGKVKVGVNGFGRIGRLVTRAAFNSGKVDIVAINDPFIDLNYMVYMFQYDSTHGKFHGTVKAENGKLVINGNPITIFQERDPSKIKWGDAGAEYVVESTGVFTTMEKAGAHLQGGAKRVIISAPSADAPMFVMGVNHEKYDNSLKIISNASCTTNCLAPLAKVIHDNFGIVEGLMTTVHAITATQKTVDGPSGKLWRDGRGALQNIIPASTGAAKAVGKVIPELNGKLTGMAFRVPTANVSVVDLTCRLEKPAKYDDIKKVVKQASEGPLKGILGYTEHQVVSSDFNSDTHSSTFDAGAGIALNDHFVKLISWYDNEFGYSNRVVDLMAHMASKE
UniProt P20813: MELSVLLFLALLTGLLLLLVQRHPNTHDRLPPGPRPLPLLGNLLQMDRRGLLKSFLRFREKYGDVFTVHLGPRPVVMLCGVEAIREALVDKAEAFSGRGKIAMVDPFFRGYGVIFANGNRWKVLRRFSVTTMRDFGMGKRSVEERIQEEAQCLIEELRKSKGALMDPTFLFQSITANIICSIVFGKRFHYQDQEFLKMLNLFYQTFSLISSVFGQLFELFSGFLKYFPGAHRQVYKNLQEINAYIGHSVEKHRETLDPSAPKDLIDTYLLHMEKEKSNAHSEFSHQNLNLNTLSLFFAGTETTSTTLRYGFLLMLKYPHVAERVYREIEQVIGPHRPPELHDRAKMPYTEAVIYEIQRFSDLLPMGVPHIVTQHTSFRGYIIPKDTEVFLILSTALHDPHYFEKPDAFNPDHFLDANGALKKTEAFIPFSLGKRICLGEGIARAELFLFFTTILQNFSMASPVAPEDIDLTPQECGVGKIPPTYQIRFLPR
UniProt P08684, whole entry, looked up: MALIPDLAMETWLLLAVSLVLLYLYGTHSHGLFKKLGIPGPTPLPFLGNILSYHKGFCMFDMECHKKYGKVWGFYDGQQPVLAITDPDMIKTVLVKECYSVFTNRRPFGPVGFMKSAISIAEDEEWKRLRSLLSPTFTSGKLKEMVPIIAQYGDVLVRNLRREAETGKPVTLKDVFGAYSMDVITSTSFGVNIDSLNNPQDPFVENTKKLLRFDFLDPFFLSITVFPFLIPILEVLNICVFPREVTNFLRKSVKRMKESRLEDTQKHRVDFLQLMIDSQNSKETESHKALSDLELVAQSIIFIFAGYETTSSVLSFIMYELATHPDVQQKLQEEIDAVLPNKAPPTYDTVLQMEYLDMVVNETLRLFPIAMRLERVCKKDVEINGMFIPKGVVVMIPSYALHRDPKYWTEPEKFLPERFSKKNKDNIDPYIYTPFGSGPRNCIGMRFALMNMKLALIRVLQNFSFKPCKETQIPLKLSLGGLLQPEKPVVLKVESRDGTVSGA

How the values were obtained:
[1] = read-out: xenobiotic metabolism (CYP1A2), CYP1A2 (gene 1544); experiment: CLD_CYP1A2_6hr: CellzDirect (CLD) Gene Expression Assay for xenobiotic metabolism (CYP1A2) at 6 hours (AID 2283663);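 as to AC50: potency is for induction meaning a rise in mRNA above DMSO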
Summary of the method: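 Primary human hepatocytes from two donor preparations, dosed daily with multiple concentrations in 0.2% DMSO and harvested at 6 h. CYP1A2 mRNA induction measured by chemiluminescent qNPA, gain of signal fitted against DMSO; cytotoxicity flagged morphologically.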

[2] = Tanguay_ZF_120hpf_TR_legacy: (Legacy) Oregon State University Tanguay Lab 120 Hour Post-fertilization zebrafish Assay for Touch Response (AID 2283667)
Summary of the method: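 Tropical 5D wild-type zebrafish embryos were exposed statically in sealed, foil-covered plates at 28C until 120 hpf, with 0.64% (vol/vol) final DMSO. Touch response was scored as present or absent; embryos that died were not scored.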

[3] = read-out: organic anion transporter (SLCO1B1), SLCO1B1 (gene 10599); experiment: CLD_SLCO1B1_6hr: CellzDirect (CLD) Gene Expression Assay for organic anion transporter (SLCO1B1) at 6 hours (AID 2283668);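 also: active means mRNA induction above DMSO baseline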
Summary of the method: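 Primary human hepatocytes dosed daily with test chemicals (multiple concentrations) in 0.2% DMSO vehicle; harvested at 6 h. SLCO1B1 mRNA quantified by qNPA chemiluminescence, fitted as gain-of-signal versus DMSO; cytotoxicity from phase-contrast morphology flagged alongside.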

[4] = CLD_ACTIN_24hr: CellzDirect (CLD) Gene Expression Assay for Baseline Control (Actin) at 24 hours (AID 2283670)
Summary of the method: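 Primary human hepatocytes dosed over multiple concentrations with 0.2% DMSO vehicle; actin mRNA measured at 24 h by qNPA chemiluminescence. Background control endpoint, fitted as gain of signal versus DMSO.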

[5] = read-out: HMG-CoA synthase (HMGCS2), HMGCS2 (gene 3158); experiment: CLD_HMGCS2_6hr: CellzDirect (CLD) Gene Expression Assay for HMG-CoA synthase (HMGCS2) at 6 hours (AID 2283682);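 also: actives raise HMGCS2 transcript above the 0.2% DMSO vehicle baseline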
Summary of the method: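 Primary human hepatocytes dosed daily with fresh chemical, 0.2% DMSO vehicle; HMGCS2 mRNA measured at 6 h by qNPA chemiluminescence. Gain of signal fitted against DMSO; cytotoxicity flagged from phase-contrast morphology.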

[6] = read-out: Cytochrome P450 2C19 (Homo sapiens) (UniProt P33261); experiment: CLD_CYP2C19_6hr: CellzDirect (CLD) Gene Expression Assay for xenobiotic metabolism (CYP2C19) at 6 hours (AID 2283678)
Summary of the method: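 Primary human hepatocytes from two donor preparations were dosed daily, with 0.2% DMSO as vehicle, and harvested 6 h after dosing. CYP2C19 mRNA induction was measured by qNPA chemiluminescence and fitted as gain of signal against DMSO.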

[7] = read-out: xenobiotic metabolism (CYP1A2), CYP1A2 (gene 1544); experiment: CLD_CYP1A2_24hr: CellzDirect (CLD) Gene Expression Assay for xenobiotic metabolism (CYP1A2) at 24 hours (AID 2283683)
Summary of the method: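 Primary human hepatocytes from two donor preparations dosed daily with multiple concentrations of chemical, 0.2% DMSO vehicle. CYP1A2 mRNA at 24 h quantified by qNPA chemiluminescence; gain of signal analyzed relative to DMSO. Cytotoxicity flagged by phase-contrast morphology.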

[8] = read-out: xenobiotic metabolism (CYP2C9), CYP2C9 (gene 1559); experiment: CLD_CYP2C9_6hr: CellzDirect (CLD) Gene Expression Assay for xenobiotic metabolism (CYP2C9) at 6 hours (AID 2283664)
Summary of the method: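 Primary human hepatocytes dosed daily with test chemicals at multiple concentrations; harvested at 6 h. CYP2C9 mRNA induction measured by qNPA chemiluminescence. Gain of signal fitted against 0.2% DMSO vehicle; cytotoxicity annotated from phase-contrast morphology.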

[9] = read-out: alkyl and aryl transferase (GSTA2), GSTA2 (gene 2939); experiment: CLD_GSTA2_6hr: CellzDirect (CLD) Gene Expression Assay for alkyl and aryl transferase (GSTA2) at 6 hours (AID 2283666)
Summary of the method: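 Primary human hepatocytes from two donor preparations were dosed daily with fresh compound at multiple concentrations, 0.2% DMSO vehicle. GSTA2 mRNA was measured at 6 hours by qNPA chemiluminescence; induction fitted relative to DMSO, with cytotoxicity flagged morphologically.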

[10] = read-out: sulfotransferase (SULT2A), SULT2A1 (gene 6822); experiment: CLD_SULT2A_6hr: CellzDirect (CLD) Gene Expression Assay for sulfotransferase (SULT2A) at 6 hours (AID 2283669);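 also: hits raise transcript level above the DMSO vehicle baseline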
Summary of the method: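 Primary human hepatocytes from two donor preparations were dosed daily with chemicals or 0.2% DMSO and harvested at 6 h. Transcript induction read by qNPA chemiluminescence, fitted for gain of signal relative to DMSO; morphology-based cytotoxicity annotated.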

[11] = read-out: ABC Transporter (ABCB11), ABCB11 (gene 8647); experiment: CLD_ABCB11_6hr: CellzDirect (CLD) Gene Expression Assay for ABC Transporter (ABCB11) at 6 hours (AID 2283675);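 also: hits raise ABCB11 mRNA level so AC50 marks induction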
Summary of the method: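 Human primary hepatocytes (two donor preparations) given fresh chemical daily at multiple concentrations, vehicle 0.2% DMSO. ABCB11 mRNA induction measured 6 h after dosing by qNPA chemiluminescence versus DMSO; cytotoxicity annotated from morphology.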

[12] = read-out: Glyceraldehyde-3-phosphate dehydrogenase (Homo sapiens) (UniProt P04406); experiment: CLD_GAPDH_6hr: CellzDirect (CLD) Gene Expression Assay for Baseline Control (Glyceraldehyde 3-phosphate dehydrogenase) at 6 hours (AID 2283681)
Summary of the method: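 Primary human hepatocytes from two donor preparations, dosed at multiple concentrations with 0.2% DMSO vehicle; GAPDH mRNA measured 6 h after dosing by chemiluminescent quantitative nuclease protection assay (qNPA) on denatured lysates. Serves as background control; cytotoxicity annotated by morphology.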

[13] = read-out: ABC Transporter (ABCB1), ABCB1 (gene 5243); experiment: CLD_ABCB1_24hr: CellzDirect (CLD) Gene Expression Assay for ABC Transporter (ABCB1) at 24 hours (AID 2283684);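 as to AC50: potency for increase in ABCB1 mRNA relative to DMSO vehicle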
Summary of the method: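 Primary human hepatocytes, two donor preparations, dosed daily with fresh solutions; vehicle 0.2% DMSO; harvested at 24 h. ABCB1 mRNA measured by quantitative nuclease protection assay (chemiluminescence); morphology-based cytotoxicity annotated.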

[14] = read-out: glucuronosyltransferase (UGT1A1), UGT1A1 (gene 54658); experiment: CLD_UGT1A1_6hr: CellzDirect (CLD) Gene Expression Assay for glucuronosyltransferase (UGT1A1) at 6 hours (AID 2283672)
Summary of the method: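 Primary human hepatocytes from two donor preparations, dosed with fresh solutions in 0.2% DMSO, harvested at 6 h. UGT1A1 mRNA measured by qNPA chemiluminescence; induction fitted upward versus DMSO.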

[15] = read-out: Cytochrome P450 2B6 (Homo sapiens) (UniProt P20813); experiment: CLD_CYP2B6_6hr: CellzDirect (CLD) Gene Expression Assay for xenobiotic metabolism (CYP2B6) at 6 hours (AID 2283677);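 also: actives raise CYP2B6 transcript above DMSO baseline so AC50 marks an inducer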
Summary of the method: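 Primary human hepatocytes dosed with chemicals at multiple concentrations, vehicle 0.2% DMSO; CYP2B6 mRNA induction measured 6 h after dosing by quantitative nuclease protection assay with chemiluminescence, gain of signal fitted relative to DMSO.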

[16] = CCTE_Simmons_CellTiterGLO_HEK293T: Viability Assessment in CCTE's Assays for Thyroperoxidase (TPO) Inhibition, Simmons Lab (AID 2283665);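 as to AC50: cells exposed to compound for 24 h before readout; actives reduce ATP signal below DMSO vehicle meaning cytotoxicity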
Summary of the method: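 HEK293T cells in DMEM with 1% FBS, dosed 24 h at 37C with 8 concentrations, 5 nM–87.5 uM final, 0.5% DMSO. ATP measured by CellTiter Glo luminescence; loss of signal vs DMSO, three biological replicates.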

[17] = CLD_ACTIN_6hr: CellzDirect (CLD) Gene Expression Assay for Baseline Control (Actin) at 6 hours (AID 2283676)
Summary of the method: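 Primary human hepatocytes dosed with fresh chemical solutions (vehicle 0.2% DMSO), harvested at 6 h. Actin mRNA quantified by quantitative nuclease protection assay with chemiluminescent read-out, as background control relative to DMSO.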

[18] = read-out: Cytochrome P450 3A4 (Homo sapiens) (UniProt P08684); experiment: CLD_CYP3A4_6hr: CellzDirect (CLD) Gene Expression Assay for xenobiotic metabolism (CYP3A4) at 6 hours (AID 2283680)
Summary of the method: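 Primary human hepatocytes (two donor preparations) dosed; CYP3A4 mRNA harvested at 6 h and quantified by qNPA chemiluminescence. Gain of signal fitted against 0.2% DMSO vehicle; cytotoxicity flagged by phase-contrast morphology.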

[19] = read-out: xenobiotic metabolism (CYP1A1), CYP1A1 (gene 1543); experiment: CLD_CYP1A1_24hr: CellzDirect (CLD) Gene Expression Assay for xenobiotic metabolism (CYP1A1) at 24 hours (AID 2283673);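 also: CYP1A1 mRNA level by quantitative nuclease protection with chemiluminescence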
Summary of the method: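 Primary human hepatocytes dosed daily with fresh solutions in 0.2% DMSO vehicle. mRNA measured at 24 h by quantitative nuclease protection assay with chemiluminescence; gain-of-signal fit versus DMSO, with morphology-based cytotoxicity flags.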

[20] = read-out: ABC Transporter (ABCB11), ABCB11 (gene 8647); experiment: CLD_ABCB11_24hr: CellzDirect (CLD) Gene Expression Assay for ABC Transporter (ABCB11) at 24 hours (AID 2283674; active = hit-call score of the fitted dose curve at least 0.9, where 1 is the maximum; inactive = score below 0.9)
Summary of the method: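 Primary human hepatocytes were dosed daily for two days, with 0.2% DMSO vehicle. ABCB11 mRNA induction was measured at 24 hours by quantitative nuclease protection assay with chemiluminescence. Gain of signal was fitted relative to DMSO.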

Measured: AC50

CCC(C)(CC)c1cc(NC(=O)c2c(OC)cccc2OC)on1
inconclusive: [1] 0.00604 µM | [4] 2.2 µM | [5] 0.000992 µM
inactive: [2] | [3]

CN=C=S
inactive: [2] | [3] | [6] | [7]
inconclusive: [1] 1.7 µM | [4] 20 µM | [5] 0.000622 µM

CCCCC(O)(Cn1cncn1)c1ccc(Cl)cc1Cl (stereo not given)
inconclusive: [8] 20 µM | [9] 20 µM | [10] 0.00236 µM | [11] 0.552 µM | [6] 20 µM | [12] 20 µM | [5] 0.237 µM
active: [13] 31.9 µM

CC(C)(C)c1ccc(CSc2cnn(C(C)(C)C)c(=O)c2Cl)cc1
inconclusive: [1] 0.0527 µM | [8] 0.00428 µM | [14] 0.109 µM | [15] 0.147 µM | [6] 0.0714 µM

CN1CSC(=S)N(C)C1
inactive: [16] | [3] | [15] | [13]
inconclusive: [8] 0.0623 µM | [17] 20 µM | [18] 20 µM | [5] 0.00192 µM

CC(C)N(C(=O)COc1nnc(C(F)(F)F)s1)c1ccc(F)cc1
inconclusive: [8] 20 µM | [16] 0.000657 µM | [9] 20 µM | [17] 3.97 µM | [6] 6.49 µM | [18] 20 µM | [5] 20 µM

Cc1cc(C2CC2)nc(Nc2ccccc2)n1
inconclusive: [8] 20 µM | [9] 20 µM | [2] 202 µM | [3] 20 µM | [10] 0.0176 µM | [11] 20 µM | [6] 20 µM | [12] 8.21 µM | [5] 20 µM | [13] 19 µM

C#CCN1C(=O)COc2cc(F)c(N3C(=O)C4=C(CCCC4)C3=O)cc21
inactive: [6]
inconclusive: [1] 1.86 µM | [8] 20 µM | [10] 20 µM | [14] 20 µM | [19] 1.89 µM | [11] 0.399 µM | [12] 20 µM | [5] 0.351 µM

Oc1cc(Cl)ccc1Oc1ccc(Cl)cc1Cl
inconclusive: [1] 20 µM | [10] 20 µM | [14] 0.000608 µM | [6] 20 µM
inactive: [3] | [4] | [19] | [15] | [7]

N#CC(CCc1ccc(Cl)cc1)(Cn1cncn1)c1ccccc1 (stereo not given)
inconclusive: [8] 20 µM | [9] 20 µM | [3] 0.0772 µM | [17] 20 µM | [12] 0.1 µM

CC(C)(C)C(O)C(Oc1ccc(Cl)cc1)n1cncn1 (stereo not given)
inactive: [9] | [5]
inconclusive: [8] 0.373 µM | [3] 1.9 µM | [6] 33.1 µM

CCSC(=O)N(CC)C1CCCCC1
inconclusive: [9] 20 µM | [2] 14.1 µM | [10] 20 µM | [19] 20 µM | [12] 20 µM | [5] 20 µM
inactive: [8] | [3] | [20] | [11] | [6] | [13]

CCC(CC)Nc1c([N+](=O)[O-])cc(C)c(C)c1[N+](=O)[O-]
inconclusive: [9] 4.19 µM | [17] 20 µM | [13] 20 µM
inactive: [1] | [3]

CNC(=O)Oc1ccccc1OC(C)C
inconclusive: [9] 20 µM | [13] 20 µM
inactive: [8] | [4] | [17] | [12]

CCOC(=O)COc1cc(-c2nn(C)c(OC(F)F)c2Cl)c(F)cc1Cl
inactive: [8] | [10] | [12]
inconclusive: [3] 0.00651 µM | [4] 4.62 µM | [17] 20 µM | [6] 20 µM | [5] 20 µM

Reprinted at random: 2 records from the list.
CCOC(=O)COc1cc(-c2nn(C)c(OC(F)F)c2Cl)c(F)cc1Cl
inactive: [8] | [10] | [12]
inconclusive: [3] 0.00651 µM | [4] 4.62 µM | [17] 20 µM | [6] 20 µM | [5] 20 µM

CCC(CC)Nc1c([N+](=O)[O-])cc(C)c(C)c1[N+](=O)[O-]
inconclusive: [9] 4.19 µM | [17] 20 µM | [13] 20 µM
inactive: [1] | [3]

Following part.

CCC(C)(NC(=O)c1cc(Cl)c(C)c(Cl)c1)C(=O)CCl (stereo not given)
inconclusive: [6] 20 µM | [12] 20 µM | [5] 0.0527 µM
inactive: [8] | [13]
active: [2] 57.8 µM
